Counter-ions that a name gives are not always drawn. Like-named read-outs stand apart in the source and are kept apart here. The campaign covered roughly 3,300 compounds. About 60 (2%) showed an effect of 50% or more. Some of the results follow. Peptide text beside a SMILES is read from it.
Test system: HCoV-OC43
Design: species or system RD; HTS, protection from HCoV-OC43 induced cell death, luminescent cell viability (CellCounting-Lite 2.0), inhibition rate
Details: 24 h post infection, 1 h compound pre-incubation, 10 µM, inhibitor

SMILES	OC43 Inhibition rate [%]	OC43 Inhibition rate (OC43 Inhibition rate, 24 h) [%]
N#CS [Sodium thiocyanate]	3.6	
O=C(O)CCCCCCCCCCCC(=O)O [Tridecanedioic acid]	-1.6	
O=C(/C=C/c1ccc(O)cc1)OC[C@H]1O[C@@H](Oc2c(-c3ccc(O)cc3)oc3cc(O)cc(O)c3c2=O)[C@H](O)[C@@H](O)[C@@H]1O [Tiliroside]	4.5	
OCCc1ccc(O)cc1 [Tyrosol]	-0.1	
Oc1cc(O)c2c(c1)O[C@@]1(c3ccc(O)c(O)c3)Oc3cc(O)c4c(c3[C@@H]2[C@H]1O)O[C@H](c1ccc(O)c(O)c1)[C@H](O)[C@H]4c1c(O)cc(O)c2c1O[C@H](c1ccc(O)c(O)c1)[C@H](O)C2 [Cinnamtannin B-1]	0.2	
COc1ccccc1C(=O)O [2-Methoxybenzoic acid]	1.2	
CC(C)C12CCC(C)(CC1)O2 [1,4-Cineole]	0	
CC(=O)N[C@@H](C)C(=O)O [Ac-Ala-OH]	-2	
CN(C)[C@@H]1C(O)=C(C(N)=O)C(=O)[C@@]2(O)C(O)=C3C(=O)c4c(O)ccc(Cl)c4[C@@H](O)[C@H]3C[C@@H]12 [Demeclocycline (hydrochloride)]	48	
CCCCCCCCC(=O)O [Nonanoic acid]	0.8	
C[C@H](CO[C@@H]1O[C@H](CO)[C@@H](O)[C@H](O)[C@H]1O)[C@H]1CC[C@@]2(CC[C@]3(C)[C@H](CC[C@@H]4[C@@]5(C)CC[C@H](O[C@@H]6O[C@H](CO)[C@@H](O)[C@H](O)[C@H]6O[C@@H]6OC[C@@H](O)[C@H](O)[C@H]6O)[C@@](C)(CO)[C@@H]5CC[C@]43C)[C@H]2O)CO1 [Hosenkoside F]	2.3	
Cc1ncc(CO)c(CO)c1O [Pyridoxine (hydrochloride)]		-0.3
COc1c(O)cc2oc3cc4c(c(O)c3c(=O)c2c1CC=C(C)C)CCC(C)(C)O4 [3-Isomangostin]	41.9	
Oc1ccc2[nH]ccc2c1 [5-Hydroxyindole]	1.1	
O=C(O)c1cc(O)c(O)c(O)c1 [Gallic acid]		-0.1
CSCCC(N)C(=O)O (racemic) [DL-Methionine]	-2.1	
CC(C)CCC(=O)O [4-Methylpentanoic acid]	-0.5	
CCCCCCC(=O)CCCCCC/C=C/C[C@@H](O)[C@H](O)[C@@](N)(CO)C(=O)O [Myriocin]	-0.6	
C[C@@]1(C(=O)O)CC[C@]2(C)CC[C@]3(C)C4=CC(=O)c5c(cc(O)c(O)c5C=O)[C@]4(C)CC[C@@]3(C)[C@@H]2C1 [Demethylzeylasteral]	8.5	
C[n+]1cccc(C(=O)[O-])c1 [Trigonelline (chloride)]		1.2
CC(C)=CCc1c2ccoc2c(O)c2oc(=O)ccc12 [Alloimperatorin]	0.8	

SMILES	OC43 Inhibition rate [%]	OC43 Inhibition rate (OC43 Inhibition rate, 24 h) [%]
CC(=O)OCCc1ccc(O)c(O)c1 [Hydroxytyrosol acetate]	-1	
O=C(CC(=O)c1ccccc1)c1ccccc1 [DBM, dibenzoylmethane]	102.9	
COc1ccc2c(=O)cc(-c3ccccc3)oc2c1 [7-Methoxyflavone]	0	
C[C@@H]1CC[C@@]2(OC1)O[C@H]1C[C@H]3[C@@H]4CC=C5C[C@@H](O)C[C@@H](O)[C@]5(C)[C@H]4CC[C@]3(C)[C@H]1[C@@H]2C [Ruscogenin]	4.9	
COc1cc(/C=C/C(=O)O[C@@H]2C[C@@](O)(C(=O)O)C[C@@H](O)[C@@H]2O)ccc1O [3-Feruloylquinic acid]	-3	
OC[C@H]1O[C@H](OC[C@H]2O[C@H](O[C@H]3[C@H](O)[C@@H](O)[C@@H](O)O[C@@H]3CO)[C@H](O)[C@@H](O)[C@@H]2O[C@H]2O[C@H](CO)[C@@H](O)[C@H](O)[C@H]2O)[C@H](O)[C@@H](O)[C@@H]1O [Glycogen, Oysters]	-0.3	
CC(C)[C@@H]1NC(=O)[C@@H]2CCCN2C(=O)[C@H](C(C)C)NC(=O)CNC(=O)[C@H](C)NC(=O)[C@H](Cc2c[nH]c3ccccc23)NC1=O [Segetalin A] (cyclo(AGVPVW))	0.2	
COc1nccnc1CC(C)C [2-Isobutyl-3-methoxypyrazine]	-1	
CC(C)(O)CC(=O)O [3-Hydroxyisovaleric acid]	-0.3	
COC(=O)c1ccc(OC)c(O)c1 [Methyl isovanillate]	0.2	
COc1cc2cc(c1Cl)N(C)C(=O)C[C@H](O)[C@]1(C)O[C@H]1[C@H](C)[C@@H]1C[C@@](O)(NC(=O)O1)[C@H](OC)/C=C/C=C(\C)C2 [Maytansinol]	6.6	
O=C(OCc1ccccc1)c1ccccc1 [Benzyl benzoate]	4.9	
C[C@H]1O[C@@H](O[C@H]2CC[C@@]3(C)[C@@H](CC[C@]4(C)[C@@H]3C=C[C@]35OC[C@@]6(CCC(C)(C)C[C@H]63)[C@H](O)C[C@]54C)[C@]2(C)CO)[C@H](O)[C@@H](O[C@@H]2O[C@H](CO)[C@@H](O)[C@H](O)[C@H]2O)[C@H]1O [Saikosaponin D]	-13.1	
OC[C@H]1NC[C@@H](O)[C@@H](O)[C@@H]1O [1-Deoxymannojirimycin (hydrochloride)]	3.3	
NCc1ccc(O)cc1 [4-Hydroxybenzylamine]	0.1	
CCCCCCCCCCCCC(=O)O [Tridecanoic acid]	-0.4	
CC[C@@H]1CN2CC[C@@]3(C(=O)Nc4ccccc43)[C@@H]2C[C@@H]1/C(=C\OC)C(=O)OC [Corynoxine]	-0.4	
O=C1CC(c2ccc(O)cc2)Oc2ccccc21 (centres unmarked) [4'-Hydroxyflavanone]	6.4	
COc1cc(/C=C/c2ccc(O)c(O)c2)cc(OC)c1 [3'-Hydroxypterostilbene]	0.8	
CC(C)=CCc1cc(-c2coc3cc(O)cc(O)c3c2=O)cc(O)c1O [Glycyrrhisoflavone]	2.1	
C=C(CCC=C(C)C)[C@H]1CC[C@]2(C)[C@@H]1[C@H](O)C[C@@H]1[C@@]3(C)C[C@@H](O)[C@H](O[C@@H]4O[C@H](CO)[C@@H](O)[C@H](O)[C@H]4O[C@@H]4O[C@H](CO)[C@@H](O)[C@H](O)[C@H]4O)C(C)(C)[C@@H]3CC[C@]12C [Damulin B]	7.3	

3 entries already listed, sorted by molar mass, smallest number first.
SMILES	OC43 Inhibition rate [%]	OC43 Inhibition rate (OC43 Inhibition rate, 24 h) [%]
COc1nccnc1CC(C)C [2-Isobutyl-3-methoxypyrazine]	-1	
CC(C)[C@@H]1NC(=O)[C@@H]2CCCN2C(=O)[C@H](C(C)C)NC(=O)CNC(=O)[C@H](C)NC(=O)[C@H](Cc2c[nH]c3ccccc23)NC1=O [Segetalin A] (cyclo(AGVPVW))	0.2	
C[C@H]1O[C@@H](O[C@H]2CC[C@@]3(C)[C@@H](CC[C@]4(C)[C@@H]3C=C[C@]35OC[C@@]6(CCC(C)(C)C[C@H]63)[C@H](O)C[C@]54C)[C@]2(C)CO)[C@H](O)[C@@H](O[C@@H]2O[C@H](CO)[C@@H](O)[C@H](O)[C@H]2O)[C@H]1O [Saikosaponin D]	-13.1	

(listing goes on)

SMILES	OC43 Inhibition rate [%]	OC43 Inhibition rate (OC43 Inhibition rate, 24 h) [%]
Nc1[nH]cnc2ncnc1-2 [Adenine]		1.2
COc1ccc2cc1Oc1ccc(cc1)C[C@H]1c3cc(c(OC)cc3CCN1C)Oc1c(OC)c(OC)cc3c1[C@H](C2)N(C)CC3 [tetrandrine]	79.7	
Sc1nc2ccccc2s1 [2-Mercaptobenzothiazole]	0.3	
O=C(O)CNC(=O)c1cccnc1 [Nicotinuric acid]	-0.3	
CCCCCC/C=C/CCCCCCCCCC(=O)O [trans-Vaccenic acid]	-0.2	
COc1cc(/C=C/c2ccccc2)oc(=O)c1 [Desmethoxyyangonin]	3.4	
Cc1coc2c1C(=O)C(=O)c1c-2ccc2c(C)cccc12 [Tanshinone I]	2.5	
C[C@@]12C[C@@]3(O)O[C@@H](O1)[C@]1(COC(=O)c4ccccc4)[C@H]3C[C@@]12O[C@@H]1O[C@H](CO)[C@@H](O)[C@H](O)[C@H]1O [Paeoniflorin]	-2.8	
C[C@H](CC[C@@H](O)C(C)(C)O)[C@H]1CC[C@@]2(C)[C@@H]3CC=C4[C@@H](CC[C@H](O[C@@H]5O[C@H](CO)[C@@H](O)[C@H](O)[C@H]5O)C4(C)C)[C@]3(C)[C@H](O)C[C@]12C [Mogroside I E1]	-1.8	
C[C@]12CC[C@@H]3c4ccc(OS(=O)(=O)O)cc4CC[C@H]3[C@@H]1CCC2=O [Estrone sulfate (sodium)]		0.2
COc1ccc(-c2coc3cc(O[C@@H]4O[C@H](CO[C@@H]5OC[C@@H](O)[C@H](O)[C@H]5O)[C@@H](O)[C@H](O)[C@H]4O)c(OC)c(O)c3c2=O)cc1 [Kakkalide]	-0.1	
CC/C=C\C/C=C\C/C=C\C/C=C\C/C=C\CCCCCC(=O)O [Docosapentaenoic acid (22n-3)]	1.3	
COc1ccc2[nH]cc(CCO)c2c1 [5-Methoxytryptophol]	-1.4	
C[C@H](CC[C@@H](O[C@@H]1O[C@H](CO[C@@H]2O[C@H](CO)[C@@H](O)[C@H](O)[C@H]2O)[C@@H](O)[C@H](O)[C@H]1O)C(C)(C)O)[C@H]1CC[C@@]2(C)[C@@H]3CC=C4[C@@H](CC[C@H](O[C@@H]5O[C@H](CO)[C@@H](O)[C@H](O)[C@H]5O)C4(C)C)[C@]3(C)[C@H](O)C[C@]12C [Mogroside III]	-0.2	
O=C(O)CC(O)(CC(=O)OCc1ccc(O[C@@H]2O[C@H](CO)[C@@H](O)[C@H](O)[C@H]2O)cc1)C(=O)O (some centres unmarked) [Parishin E]	-0.4	
CC(C)(c1ccc(O)cc1)c1ccc(O)cc1 [Bisphenol A]	3.4	
CCCCCCCCCCCCCCCCCCCO [1-Nonadecanol]	-1.1	
C[N+](C)(C)[O-] [Trimethylamine N-oxide (dihydrate)]		-1.8
Nc1nc(=O)c2c([nH]1)NC[C@@H](CNc1ccc(C(=O)N[C@@H](CCC(=O)O)C(=O)O)cc1)N2C=O [Folinic acid]	0.1	
CN[C@H]1C[C@@H](N)[C@H](O)[C@@H](O[C@@H]2O[C@H](CO)[C@H](O)[C@@H]3OC4(O[C@H]23)O[C@H]([C@@H](N)CO)[C@H](O)[C@H](O)[C@H]4O)[C@@H]1O (some centres unmarked) [Hygromycin B]	-0.1	

Source: paper PMC12431657, “Discovery and mechanistic insights of dibenzoylmethane as a broad spectrum inhibitor of coronavirus” (PLOS Pathogens, 2025)
